These are literature values, as cited in US20070179135A1 (priority 2006, published 2007).

The subject of the data set is CB2 and CB1 receptors. Conditions: inhibition of cAMP production; cited from earlier work. For orientation: Changes in cAMP serve as a functional read-out for many G protein-coupled receptors.

Where only a bound is given, the exact number is not on record here.

As to `CCCCCCC(C)(C)c1cc(OC)c2c(c1)OC(C)(C)[C@@H]1CC=C(C)C[C@@H]21` [Example L759633], the EC50CB2/EC50CB1 ratio was more than 1000.
Take `C=C1CC[C@@H]2[C@@H](C1)c1c(OC)cc(C(C)(C)CCCCCC)cc1OC2(C)C` [Example L759656]: the EC50CB2/EC50CB1 ratio is listed as more than 3000.
